Drawing on PubChem BioAssay AID1347423 (Functional Genomics Laboratory (NCATS/FGL), 2020), this text covers z-score for 104 sequences.

Among all 52,000 sequences or so, about 210 (0.4%) were called active.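 How the source made its calls: active means gene whose silencing raises cell survival under the drug, median off-target-corrected z-score across its silencing RNAs 2 or more; inactive means the rest.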 This is one part of the list.

The nature of this test: Resistance to Poly (ADP-Ribose) Polymerase inhibitor: Gene Identification via Genome-wide siRNA Screen. To be noted: mouse BRCA2 R2336H ES cells, olaparib, CellTiter-Glo viability; hits give high values. Put shortly: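 Mouse BRCA2 R2336H ES cells were reverse-transfected with siRNA (20 nM final), treated at 48 h with 500 nM olaparib, and read by CellTiter-Glo after 72 h. Scores: MAD-based z per siRNA, median per gene, seed off-target correction.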
(In general: ATP-based viability assays read luminescence as a measure of living cells.)
In the case of GCCUCAGUCCGAUAAAGAGTT against Emcn, the z-score was inactive: 0.734.

Turning to GCCAGCUUCCGUGUUUGUUTT against Nfkb1, the z-score was inactive: -1.7.

Consider GGACCUGAAGAAGCAUGGUTT against Mb, for which the z-score was inactive: 3.06.

On to “CGAGUUUCAUCGAACGUGUTT against 4732452J19Rik”, for which the z-score is inactive: 0.0041.

As to GGUGUCUGACUUUAAGAAGTT against BC024806, the z-score is inactive: 0.429.

As to GCUACGAACUAAUUGAAAATT against Atp8a1, the z-score is inactive: 0.84.

With GGUACCAUAUCUGUGAACATT against Nrxn3, the z-score is inactive: -1.08.

As for GCCCACUUCCGAAUCAAUATT against Mrpl52, the z-score is inactive: -0.895.

Turning to CCUAUGCUAUAGCAGUCUCTT against Oaz1, the z-score was inactive: 0.751.

On to GGGCAGGGAUGUUUAGAUCTT against Homer2, for which the z-score was inactive: 0.256.

CCAUAUUGGCAAUCUCUAGTT against AY238603: the z-score is inactive: 0.966.

In the case of GGGCAUUUGGCCUUUCUCATT against Cpsf4, the z-score was inactive: 0.743.

Regarding GGCCGGUGCCUUUUAUUCUTT against Spib, the z-score is inactive: 0.804.

For GGAUAACCAUUCAGUAUUATT against Polq, the z-score is inactive: -0.0209.

In the case of “GGAAGAUUUUCUCCAUCUATT against 1700019P01Rik”, the z-score is inactive: 0.578.

As for AUAACCCAGUUCAUCCUCCTT against Olfr1431, the z-score was inactive: -0.826.

In the case of GGAAAAGCAACCAUGUUCUTT against Spon1, the z-score was inactive: -0.0441.

With “GGAAACAGGUCUGUCCCAATT against 8430438L13Rik”, the z-score is inactive: -0.879.

With “GGUCACCUUUGCACAGUACTT against A930016P21Rik”, the z-score is inactive: -1.1.

For the sequence “GGGUUUAAAAUCUGUAGAUTT against 2700050L05Rik”, the z-score is inactive: 1.08.

As for GCAAGAUCCCGACACAUACTT against Tead4, the z-score was inactive: -1.77.

“GCUCAUCCAGAUAAACCCATT against 1200011M11Rik”: the z-score was inactive: -0.122.

With GCGGUUGUGGUACUUAAGCTT against Txnl6, the z-score was inactive: 0.0668.

Regarding GGAAGCAGGAUCAGUUCGATT against AI481500, the z-score is inactive: -1.9.

Turning to GGAUGGACCUGACUUUCAATT against Txn2, the z-score was inactive: -1.79.

Take GCCUGGAUACAAUUACCCUTT against Mtac2d1: the z-score is inactive: 0.591.

In the case of GGACGUGUGCUCCUUCUUATT against Samhd1, the z-score is inactive: -1.78.

As for “GGUUGUAGGCCAUAAAGAATT against 2700055A20Rik”, the z-score was inactive: -1.08.

Consider “GGUACUGUGGUUUAUUCCUTT against 2610510D14Rik”, for which the z-score was inactive: -0.239.

On to GUUGUAUUUCUUUGUCCUCTT against Olfr1097, for which the z-score is inactive: -0.0942.

For the sequence GCUCUGUGAGCGAAAGUUCTT against Synpo2, the z-score was inactive: 1.13.

For CCCUUUCCUAUGCAUUUGCTT against Olfr851, the z-score was inactive: 2.77.

For the sequence CUUGGUGGAUGAAAGAUUCTT against Tdpoz2, the z-score was inactive: 0.761.

In the case of GGAACUGAAGGGCAAUAUCTT against Kifc1, the z-score was inactive: -0.241.

For “CCCUGUACACACCUAAAAATT against D10Ertd438e”, the z-score is inactive: 1.39.

Consider GGUGCGAAGGAAAUUGCACTT against Mrps26, for which the z-score was inactive: 1.09.

Take GGCUGAUGGAUUCUUAUUGTT against Ostn: the z-score was inactive: 0.4.

As to GGGAUCAUUAAACUUUUCCTT against Taf11, the z-score is inactive: 0.894.

Regarding “GGCAUUGCGUUGGCGAUGUTT against 5330414O08Rik”, the z-score was inactive: -0.309.

With GGCCUUGAAGAUCAUGAUCTT against Asb2, the z-score was inactive: 0.511.

Take CGUGCCUUACAAUUAUUCUTT against Chodl: the z-score was inactive: -0.303.

On to GCUGCGUGAACUCAACAUCTT against Rps7, for which the z-score was inactive: -3.27.

As for GGAGGUGGGUUUAUUAUACTT against Rab3b, the z-score is inactive: 0.346.

Consider GGUUGUUCUUAACAUAACCTT against BC013529, for which the z-score is inactive: 1.29.

Consider GGGAGACUGUGAAGCUUUATT against Elk4, for which the z-score was inactive: -0.855.

Turning to CCUUCAGAUUUCAGCUGAATT against Prkcb1, the z-score was inactive: 0.572.

In the case of GGAAGGUACAGGAAUCUCUTT against Arl6, the z-score was inactive: -0.999.

Take GGAAGAAAAAUUGAAACACTT against Palmd: the z-score is inactive: -0.337.

CCCAUGGCAAGUCCACACUTT against Phf2: the z-score is inactive: -0.285.

Take CCAGCAUUCACCUGACAAATT against Kif24: the z-score is inactive: -0.443.

Consider GGCUUGAAUCACCAACCAGTT against Sgcz, for which the z-score is inactive: -0.319.

Regarding CGUGGGAUCGAAUACAUAUTT against Iapp, the z-score was inactive: -1.89.

Regarding GGAGAGACUGUGAAUACAUTT against Ly96, the z-score is inactive: -0.222.

With GGCUAAGGGUAACGUGCUGTT against Bri3, the z-score is inactive: -0.47.

On to CCUAAACGAGGCCUUCGACTT against Ferd3l, for which the z-score was inactive: 0.281.

For the sequence CCAUCUAACCAAAUUCUGGTT against Agpat1, the z-score is inactive: 0.752.

On to GGAGAGGAGGUGGAAAAACTT against Rab11fip4, for which the z-score was inactive: 0.274.

As to GGUCAUGAGUGAAUAAUGATT against Arih1, the z-score is inactive: -1.22.

Turning to GCCACAACAACUUGAGCAGTT against Amigo, the z-score was inactive: 2.05.

Take GGAAGAAAACACCAUUUUUTT against Irf6: the z-score is inactive: 1.7.

As to “GGGAAAAGAAUCAAAAGUATT against 4932423M01Rik”, the z-score is inactive: 0.949.

For CGCAAGGAAAUGCUUGACCTT against Elmo3, the z-score was inactive: -0.639.

As to “GGAUACUUUAUGGUAUUUCTT against 9130023H24Rik”, the z-score was inactive: 1.57.

As to GUGAGAAAUUCAAUCUUGGTT against Gstm3, the z-score is inactive: 0.453.

Consider GGGUUUGUUGUCAUUCCUCTT against Hiat1, for which the z-score is inactive: 0.547.

GGUCUUGAUGGUAGAGAGCTT against Strc: the z-score was inactive: -0.63.

Turning to CCCUACAUAUAUCAAGAUUTT against Ephb6, the z-score is inactive: 0.536.

Regarding “GGCCUUUACAUCAAUAUCATT against 9630041N07”, the z-score was inactive: -0.111.

Consider GGUGAUGAUUUAAGAAUCCTT against Sez6, for which the z-score was inactive: 0.41.

As to GGAUGGAGAAGAUUUAAUGTT against Cul1, the z-score was inactive: -0.303.

On to CCUCUCUGACUGGUUGAAGTT against Olfr345, for which the z-score is inactive: -1.23.

Turning to “GGGUAAACUCAGGCACCUCTT against 9430098E02Rik”, the z-score was inactive: -0.117.

On to GGCUGGUUUACAACAGAACTT against Lypla3, for which the z-score is inactive: 0.372.

As for GGACUCUCACCAAUAAAAGTT against Zadh2, the z-score is inactive: -0.421.

For “GCUUGAUAUAGUAUCCUUUTT against 1110021E09Rik”, the z-score is inactive: -0.39.

Consider GGAAAAAGAGGCCUCAAAGTT against BB049667, for which the z-score was inactive: -0.0899.

GGGAGUCGUAUUUAUAUUCTT against Itga5: the z-score is inactive: 0.181.

Turning to GGUACACAACCAUCCUUGATT against Olfr600, the z-score was inactive: -0.543.

For CCCAUAUGAGCUGAAAGCUTT against Il1b, the z-score is inactive: 0.0824.

Turning to “GGCAUAGUGAAUUUAGUCUTT against 4932408B21Rik”, the z-score was inactive: 0.868.

As to “CGAAUAGGAUUUCGACCUGTT against E330023O18”, the z-score is inactive: -0.619.

Take GGUUACCUCAGUUUAAAGATT against AW049900: the z-score was inactive: 0.039.

For CCCUAGCUUUCUUCGAUGUTT against BC061194, the z-score was inactive: 0.107.

With GAUCAAAAGCCUUCAACACTT against Olfr910, the z-score was inactive: -0.877.

For GGAAGGAUUUAUCUUAGUUTT against C4bp, the z-score is inactive: -1.49.

Consider “CCUGGUGAAACGUGUAUGATT against D730048I06Rik”, for which the z-score was inactive: 1.27.

GGAUCCUAAACACUUCAAGTT against Pitpnc1: the z-score was inactive: -0.451.

GGCAUUGGAUCUUCAUUUUTT against Slc18a1: the z-score is inactive: -0.0515.

In the case of GGGACAAGGCCUCGAUAUUTT against Ggps1, the z-score is inactive: -1.

As to GGAUUUUCAAUGCUGUAUGTT against Prkag2, the z-score was inactive: 1.31.

GAUUGGAGUGAAGAAACGUTT against Fkbp2: the z-score is inactive: -0.257.

Turning to “GCGCGAGCAUUACAUAACUTT against C330001K17Rik”, the z-score is inactive: 1.29.

GCUUGUUAACCGACUAUAUTT against Fez2: the z-score is inactive: 0.234.

On to “GGCUAGCAGGAUCAGCAUCTT against F830003B07”, for which the z-score was inactive: -0.613.

Regarding GGCCCAAUCUCAAGAGGAUTT against Tnfaip8l3, the z-score was inactive: 0.25.

In the case of GGUCACUCUAUGAGGAUUUTT against Vhlh, the z-score was inactive: 1.09.

For the sequence GGUUUGGAUGUGAAACAAGTT against Ttid, the z-score is inactive: 0.782.

Turning to GGAUUUCCGUUGUCACUAATT against Krt1-4, the z-score is inactive: 2.21.

As for “GGAAGAAGCCACAAUCAACTT against 1110032A03Rik”, the z-score was inactive: 0.981.

As to GGGUAUGCAGAAGGGAACATT against Nrap, the z-score is inactive: -1.22.

For CCACUUUGACAGGAGGAAGTT against Actn2, the z-score is inactive: 0.628.

On to “GCUUGCACAAGAUGCUAUATT against B630005N14Rik”, for which the z-score was inactive: -0.837.

Consider GGGUGCAUAAGCAAGCUGUTT against Nkiras2, for which the z-score was inactive: -0.781.

CGACCACAGCAUAUAUGUUTT against Mapkbp1: the z-score was inactive: -0.605.
